Reference: US10883963B2, “Electrochemical measurement using phenylenediamine derivative” (SEIKAGAKU CORPORATION, priority 2016, dated 2021)

Test system: Limulus reagent Endospecy ES-24S
Experiment: Limulus test (2): endotoxin measurement by voltammetric method using labeled substrates
Type: biochemical
Method: Limulus tests using the substrates for measurement acquired in <Reference Example 1> described above were performed, and measurements of endotoxin were performed by a voltammetric method. The test procedures are shown below.
The same conditions as those described in <Limulus Reaction> of <Example 2> described above were applied except that a cyclic voltammetric measurement was performed instead of the chronoamperometric measurement.
The same conditions as described in <Measurement Conditions> of <Example 1> above were applied.

How did the “Measured value B/Measured value A (%)” value turn out when `CN(C)c1ccc(N)cc1` [DMPD, N, N-dimethyl-p-phenylenediamine] was run?
The value was 34%.

With `CNc1ccc(N)cc1` [MPDD, N-methyl-p-phenylenediamine] as the molecule, how does the “Measured value B/Measured value A (%)” value read?
The value was 55%.

For `COc1ccc(N)cc1` [pMA, para methoxyaniline], which “Measured value B/Measured value A (%)” value is on record?
The value was 19%.
